Measured values taken from publication PMC9996372, “Aim18p and Aim46p are chalcone isomerase domain–containing mitochondrial hemoproteins in Saccharomyces cerevisiae” (The Journal of Biological Chemistry, 2023).
Results are given in words; binding and its absence hold for the method and conditions named.

What was measured:
[1] = target: Aim18p-Nd70 (S. cerevisiae) (UniProt P38884); experiment: SEC; HiLoad 16/600 Superdex 75 pg column; SEC buffer 50 mM NaCl, 20 mM Hepes pH 7.5, 0.3 mM TCEP; elution volume compared with ~30 kDa proteins; both purified
[2] = target: Aim46p-Nd62 (S. cerevisiae) (UniProt P38885); experiment: as above

binding [1]	binding [2]	Binder
no binding		Aim18p-Nd70 (domain or fragment, UniProt P38884 71-321) RDRPVQNDDKTDAFPSHTESIQVDSSVSDFPLTITALNFPVSTTFKLLGYGQRHVTFLRFKVYALGLYLAENDENLVSDTLNETYLHKYFLDVDDSKTPKENLARLLKRDDSKSVMMIDDLLDSGMRMLAKITPVRNTDFKHLKEGLVKTISKHPDVANNKDTLAKGLSELNDAFSRKGSVRKNDDLIIELLANGALQFSYHDSKNNEFEVMGVVNNQLVGKFLFSQYLCGEKSPSPQAKKTAIDKLITLL
	no binding	Aim46p-Nd62 (domain or fragment, UniProt P38885 63-310) DDSQIKKADATSVAVDASISAFPKKMGPPQWPFSTQYELIGKGVRCVSSITFKAYGLGIYVAAEDKHLVSEVLDSKFLSQAFIDTAAPPSPENSHQDNLRAALNDPAKAPILINNLLDSGIRLMSKNTPIKAGSFKLLMDGTKKSVLKNPDSQSQDKDRLEAGFQELHDCFRSVKGLVARDDDFFIELNKDCSMNLSYYARKKDEFVILGTVKEPLIGKLLFAHYLAAVDPPSPEARKEVIDALVSLS
